Measured values as given in patent US20170342160A1.
Results are given in words; binding and its absence hold for the method and conditions named. Some entries that bind do so weakly or less than the wild type.

Chains of the proteins cited; added tags and fusions are not shown. Lines headed by an entry give the natural chain unless they say otherwise; changes in a name come on top. A line that says so, or that is headed by a name, gives the form on record, which may keep a tag or linker.
recombinant extracellular domain of human 5T4 (soluble, produced in house) (Q13641, form named): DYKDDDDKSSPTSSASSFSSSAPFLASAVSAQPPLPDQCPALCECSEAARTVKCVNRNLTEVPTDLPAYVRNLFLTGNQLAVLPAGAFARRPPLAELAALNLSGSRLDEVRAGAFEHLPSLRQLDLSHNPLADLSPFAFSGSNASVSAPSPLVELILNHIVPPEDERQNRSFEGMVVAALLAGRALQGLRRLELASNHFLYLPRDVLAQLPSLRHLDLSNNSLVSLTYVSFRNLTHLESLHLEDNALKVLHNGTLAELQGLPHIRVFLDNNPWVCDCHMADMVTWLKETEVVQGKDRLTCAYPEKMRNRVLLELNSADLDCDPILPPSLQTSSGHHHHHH

What was measured:
[1] = biological target: recombinant extracellular domain of human 5T4 (soluble, produced in house) (human) (UniProt Q13641); experiment: ELISA on recombinant 5T4 extracellular domain (FIG. 3C)
[2] = biological target: recombinant extracellular domain of human 5T4 (soluble, produced in house) (human) (UniProt Q13641); experiment: ELISA on recombinant 5T4 extracellular domain

B1: Fab(5T4), humanized VH(5T4) SEQ ID 6 and VL(5T4) SEQ ID 19 in Fab format (Fab, V domains shown)
VH: QVQLVQSGAEVKKPGASVKVSCKASGYSFTSYYMHWVKQSPGQGLEWIGRINPNNGVTLYNQKFKDRVTMTRDTSISTAYMELSRLRSDDTAVYYCARSTMITNYVMDYWGQGTLVTVSS
VL: DIVMTQSPDSLAVSLGERATINCKASQSVSNDVAWYQQKPGQPPKLLIYYTSSRYAGVPDRFSGSGSGTDFTLTISSLQAEDVAVYYCQQDYNSPPTFGGGTKLEIK
With B1 the binding [1] was “binds” and the binding [2] was “binds”.

B2: dsFv(5T4), humanized VH(5T4) SEQ ID 6 and VL(5T4) SEQ ID 19 in dsFv format (scFv)
scFv: QVQLVQSGAEVKKPGASVKVSCKASGYSFTSYYMHWVKQSPGQCLEWIGRINPNNGVTLYNQKFKDRVTMTRDTSISTAYMELSRLRSDDTAVYYCARSTMITNYVMDYWGQGTLVTVSSASGGGGSGGGGSGGGGSAGDIVMTQSPDSLAVSLGERATINCKASQSVSNDVAWYQQKPGQPPKLLIYYTSSRYAGVPDRFSGSGSGTDFTLTISSLQAEDVAVYYCQQDYNSPPTFGCGTKLEIK
For B2, the binding [1] was “binds” and the binding [2] was “binds”.
